We go through 1 substance from PMC12357876.

Protein sequences, listed by entry. Tags and fused reporters are not part of them.
UniProt P67809: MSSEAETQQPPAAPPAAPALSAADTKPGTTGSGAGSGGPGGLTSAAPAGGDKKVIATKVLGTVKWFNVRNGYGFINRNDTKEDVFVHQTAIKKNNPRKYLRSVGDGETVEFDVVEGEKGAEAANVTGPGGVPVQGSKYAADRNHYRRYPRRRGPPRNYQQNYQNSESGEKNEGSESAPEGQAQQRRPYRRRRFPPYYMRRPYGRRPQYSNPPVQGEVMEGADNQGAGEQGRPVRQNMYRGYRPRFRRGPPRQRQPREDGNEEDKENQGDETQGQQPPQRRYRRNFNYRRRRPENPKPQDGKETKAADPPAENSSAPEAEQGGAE

These are yes or no findings as the source states them, for the method shown. In cells and extracts the contact can be indirect. Some results given as binding are weak or reduced against the parent protein; the word gives no strength.

This experiment concerns the target T1, TRIM31 (human (endogenous in HT-29 and DLD-1)) (UniProt Q9BZY9).
T1 sequence: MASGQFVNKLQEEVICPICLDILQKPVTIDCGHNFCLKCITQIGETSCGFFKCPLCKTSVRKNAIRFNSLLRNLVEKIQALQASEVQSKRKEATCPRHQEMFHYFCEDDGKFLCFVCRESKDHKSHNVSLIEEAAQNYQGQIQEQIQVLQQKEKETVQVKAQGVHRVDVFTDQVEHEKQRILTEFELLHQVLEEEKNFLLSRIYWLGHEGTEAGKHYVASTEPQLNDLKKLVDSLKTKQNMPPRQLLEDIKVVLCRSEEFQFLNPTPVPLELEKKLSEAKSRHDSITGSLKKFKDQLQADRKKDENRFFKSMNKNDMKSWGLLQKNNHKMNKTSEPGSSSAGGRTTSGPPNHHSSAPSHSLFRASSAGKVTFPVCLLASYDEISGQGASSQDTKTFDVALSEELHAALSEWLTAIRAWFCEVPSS
Nature of the experiment: co-IP; IP from lysates of HT-29 and DLD-1 cells (RIPA buffer, 4 °C, protein A + G agarose beads), Western blot.

With “Y-box binding protein 1 (YBX1) (from UniProt P67809 1-324)”, the binding entry is “binds”.
